Laboratory results taken from patent US20100129369A1.
No constants are given. Whether binding was seen depends on the method and setting. Some entries that bind do so weakly or less than the wild type.

By UniProt entry, the sequences of proteins in these tests, tags left out. Where a name states a change or a piece, a line headed by the entry shows the natural chain unless it says otherwise.
UniProt P08581: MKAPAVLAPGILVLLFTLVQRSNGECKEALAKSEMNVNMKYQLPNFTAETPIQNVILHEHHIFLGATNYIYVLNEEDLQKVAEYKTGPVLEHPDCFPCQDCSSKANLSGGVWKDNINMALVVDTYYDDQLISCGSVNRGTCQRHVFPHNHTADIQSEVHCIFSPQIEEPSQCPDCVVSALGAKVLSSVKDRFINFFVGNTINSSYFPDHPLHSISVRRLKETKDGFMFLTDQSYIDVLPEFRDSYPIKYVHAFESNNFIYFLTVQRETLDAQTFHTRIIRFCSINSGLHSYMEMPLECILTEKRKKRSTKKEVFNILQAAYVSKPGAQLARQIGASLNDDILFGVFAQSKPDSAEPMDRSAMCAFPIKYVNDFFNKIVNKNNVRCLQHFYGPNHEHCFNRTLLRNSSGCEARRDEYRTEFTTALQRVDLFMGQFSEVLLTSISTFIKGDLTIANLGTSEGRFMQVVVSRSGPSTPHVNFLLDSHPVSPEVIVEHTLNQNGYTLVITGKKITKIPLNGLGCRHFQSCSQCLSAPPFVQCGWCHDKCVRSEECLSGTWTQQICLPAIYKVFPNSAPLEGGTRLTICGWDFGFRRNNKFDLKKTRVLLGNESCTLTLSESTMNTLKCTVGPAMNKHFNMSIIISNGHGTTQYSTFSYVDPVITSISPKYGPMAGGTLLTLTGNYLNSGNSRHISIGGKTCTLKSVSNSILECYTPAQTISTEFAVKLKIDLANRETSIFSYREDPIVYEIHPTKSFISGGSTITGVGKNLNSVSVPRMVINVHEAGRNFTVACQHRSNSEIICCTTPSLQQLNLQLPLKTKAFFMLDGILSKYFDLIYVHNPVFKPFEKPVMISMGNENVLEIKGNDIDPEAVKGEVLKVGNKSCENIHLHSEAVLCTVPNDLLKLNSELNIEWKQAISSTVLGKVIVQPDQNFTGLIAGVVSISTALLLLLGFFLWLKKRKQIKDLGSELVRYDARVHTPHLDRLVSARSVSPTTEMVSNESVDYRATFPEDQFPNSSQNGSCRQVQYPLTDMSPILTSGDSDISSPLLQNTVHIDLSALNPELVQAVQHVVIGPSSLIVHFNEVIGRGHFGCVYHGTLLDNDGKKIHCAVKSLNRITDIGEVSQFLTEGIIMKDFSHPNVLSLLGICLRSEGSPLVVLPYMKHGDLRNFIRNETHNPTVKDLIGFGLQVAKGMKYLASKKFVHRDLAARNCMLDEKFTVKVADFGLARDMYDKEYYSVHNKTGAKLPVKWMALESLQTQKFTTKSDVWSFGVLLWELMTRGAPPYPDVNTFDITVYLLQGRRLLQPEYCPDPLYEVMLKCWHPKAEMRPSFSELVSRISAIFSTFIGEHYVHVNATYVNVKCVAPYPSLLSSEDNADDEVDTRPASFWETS

Assays:
[1] = target: Human c-Met-Flis-Fc ECD (human); assay: ELISA, coated ECD-Fc
[2] = target: Human c-Met-Flis-Fc ECD (human); assay: SPR Biacore
[3] = target: Cynomolgus Monkey c-Met-Flis-Fc ECD (cynomolgus monkey); assay: SPR Biacore
[4] = target: Human c-Met Sema Domain with Flis tag (human) (UniProt P08581); assay: method not given

binding [1]	binding [2]	binding [3]	binding [4]	Binder
binds	binds	binds	binds	C8-6 (antibody, human IgG2, kappa, V domains shown) VH: QVQLVQSGAEVKKPGASVKVSCKASGYTFTDYYMHWVRQAPGQGLEWMGRVNPNRGGTTYNQKFEGRVTMTTDTSTSTAYMELRSLRSDDTAVYYCARTNWLDYWGQGTTVTVSS VL: DIQMTQSPSSLSASVGDRVTITCSVSSSVSSIYLHWYQQKPGKAPKLLIYSTSNLASGVPSRFSGSGSGTDFTLTISSLQPEDFATYYCIQYSGYPLTFGGGTKVEIKR
binds	binds	binds	binds	C8-co-16 (antibody, human IgG2, kappa, V domains shown) VH: QVQLVQSGAEVKKPGASVKVSCKASGYTFTDYYMHWVRQAPGQGLEWMGRVNPYRGSTTYNQKFEGRVTMTTDTSTSTAYMELRSLRSDDTAVYYCARANILDYWGQGTTVTVSS VL: DIQMTQSPSSLSASVGDRVTITCSVSSSVRSIYLHWYQQKPGKAPKLLIYSTSNLASGVPSRFSGSGSGTDFTLTISSLQPEDFATYYCQVYRGYPLTFGGGTKVEIKR
